In patent US10905729B1, “Formulations and methods for wound treatment” (Sorush, LLC, priority 2011, dated 2021):
At least one compound was matched to its structure with a doubt left.

Tested on: wounds (spider bites, traumatic wounds, venous stasis ulcers etc.)
Test: Clinical Study 2 - Institute for Advanced Wound Care
Format: in vivo, human
Conditions: Patient A, diabetic food ulcer, 24 weeks, products used together on one patient

Q: How did the “outcome of earlier traditional therapy” value turn out when `CCC[C@@H]1C[C@@H](C(=O)N[C@@H]([C@H]2O[C@H](SC)[C@H](O)[C@@H](O)[C@H]2O)[C@H](C)Cl)N(C)C1` [clindamycin, Clindamycin] was run?
A: unhealed
